In PubChem BioAssay AID493014 (National Center for Advancing Translational Sciences (NCATS), 2011):
Some of the results follow. The main result of the screen is listed elsewhere. These columns were measured beside it and carry no call. Compounds called inactive in the main read-out are mostly missing here. Potencies come from curve fits of mixed quality, noted in brackets.

Experiment: qHTS Assay to Find Inhibitors of Chronic Active B-Cell Receptor Signaling
Conditions: ABC-DLBCL IkBa-CBG/CBR reporter, luminescence ratio (green luciferase fused to IkBa over red control in TMD8 lymphoma cells), 4 h
Procedure, shortened: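 Concentration-response series (up to 46 uM) were applied to TMD8 dual-reporter cells for 4 h at 37C with doxycycline. Green/red ratio, after filter-overlap correction, defined %Activity; red signal alone was normalised to basal cells and zero luminescence.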

[1] = measured here: CBR red luminescence, cell number
[2] = measured here: IkBa-CBG green luminescence

Row | SMILES | AC50 [1] | AC50 [2]
1 | CN(C(=O)n1cnc2ccccc21)c1ccccc1 | 0.651 µM [rising, full curve, poor fit] | 
2 | O=C1/C(=C\c2cccnc2)Sc2ccccc21 | 1.3 µM [falling, partial curve, poor fit] | 
3 | COC(=O)CSc1nc(N)c2c3c(sc2n1)CCCC3 | 20 µM [falling, partial curve, poor fit] | 
4 | CC1(C)C(c2ccc(Cl)cc2)=[N+]([O-])C2(CCCC/C2=N\O)N1O (configuration not stated) | 8.91 µM [falling, partial curve, poor fit] | 
5 | O=C(Cn1cc(/C=C\[N+](=O)[O-])c2ccccc21)Nc1ccccc1 | 35.5 µM [rising, single point] | 20 µM [falling, partial curve]
6 | COCCCn1c(=O)c2sccc2n(Cc2cc(C(=O)OC)ccc2OC)c1=O | 35.5 µM [falling, single point] | 
7 | Cc1ccc(OCc2ccc(C(=O)NN)o2)c([N+](=O)[O-])c1 | 7.94 µM [falling, partial curve] | 
8 | Cc1ccc(-n2c(N)c(C(=O)N3CCOCC3)sc2=S)cc1 | 25.9 µM [falling, partial curve, poor fit] | 
9 | COc1ccc(NC(=S)N2CCC(c3ccc(C)cc3)C2)cc1 (configuration not stated) | 8.91 µM [rising, partial curve, poor fit] | 
10 | CC(=O)N1N=C(c2ccccc2)CC1c1cn(C)c2ccccc12 (configuration not stated) | 8.2 µM [falling, partial curve] | 
11 | Cc1ccc(NC(=S)NNC(=S)Nc2ccc(C)cc2C)cc1 |  | 12.6 µM [falling, partial curve]
12 | CCC(CC)NC(=O)CO/N=C/c1ccccc1OC(F)F | 1.3 µM [rising, full curve, poor fit] | 
13 | CC(C)NC(=O)c1cc(C(=O)c2cc(Cl)ccc2O)coc1=N | 12.6 µM [falling, single point] | 
14 | COc1ccc(NC(=O)CC2C(=O)N(CCc3ccccc3)C(=S)N2Cc2cccnc2)cc1 (configuration not stated) | 12.6 µM [falling, single point] | 
15 | CC(C)(C)c1ccc(CN2C(=O)c3ccccc3S2(=O)=O)cc1 | 6.31 µM [rising, full curve, poor fit] | 
16 | O=C(CC1C(=O)NCCN1C(=O)Nc1ccccc1)Nc1cc(Cl)ccc1Cl (configuration not stated) | 20 µM [rising, partial curve, poor fit] | 
17 | COc1ccc(NS(=O)(=O)c2cccc(Cl)c2)cc1S(=O)(=O)N1CCCCC1 | 1.46 µM [falling, full curve] | 
18 | CC(=O)Oc1ccc(/C=C/c2nc3ccccc3c(=O)o2)cc1 | 2.51 µM [falling, partial curve] | 
19 | CCOC(=O)c1[nH]c(C)c(C(=O)Nc2cc(Cl)ccc2C)c1C | 11.6 µM [rising, partial curve] | 16.4 µM [falling, partial curve]
20 | N#Cc1cc(N2CCOCC2)nc2ccccc12 | 7.94 µM [rising, partial curve, poor fit] | 
21 | Cc1c(C(=O)N/N=C/c2ccccn2)nnn1-c1nonc1N | 0.447 µM [falling, full curve, poor fit] | 

A draw from above in order of molecular weight, falling:
Row | SMILES | AC50 [1] | AC50 [2]
17 | COc1ccc(NS(=O)(=O)c2cccc(Cl)c2)cc1S(=O)(=O)N1CCCCC1 | 1.46 µM [falling, full curve] | 
9 | COc1ccc(NC(=S)N2CCC(c3ccc(C)cc3)C2)cc1 (configuration not stated) | 8.91 µM [rising, partial curve, poor fit] | 
1 | CN(C(=O)n1cnc2ccccc21)c1ccccc1 | 0.651 µM [rising, full curve, poor fit] | 

Carrying on.

Row | SMILES | AC50 [1] | AC50 [2]
22 | O=C(Cn1ncc(Cl)c(Cl)c1=O)NC(=O)NC1CCCCC1 | 3.66 µM [falling, full curve] | 7.31 µM [rising, partial curve, poor fit]
23 | CC(/C=N/n1c(-c2ccc(Cl)cc2)n[nH]c1=S)=C\c1ccco1 | 20.6 µM [rising, partial curve] | 
24 | O=C(Nc1cccc2cccnc12)c1ccc(Cl)cc1Cl | 10 µM [rising, partial curve] | 
25 | Cc1cccc(CN2CCN(Cc3cnn(-c4ccccc4F)c3)CC2CCO)n1 (configuration not stated) | 0.794 µM [rising, full curve, poor fit] | 
26 | CCN1C(=NCCCCO)N[C@@H](c2cccc(F)c2)C(C(=O)OC)=C1C | 0.794 µM [falling, full curve, poor fit] | 
27 | O=C(Nc1ccc2c(c1)OCCO2)c1cncc(Br)c1 | 35.5 µM [falling, single point] | 
28 | CC(=O)c1ccc(C(=O)N2CCCC(Nc3ccccc3)C2)s1 (configuration not stated) | 10 µM [rising, partial curve, poor fit] | 
29 | COc1ccc([N+](=O)[O-])cc1NC(=O)Nc1ccc(OC)c(OC)c1 | 35.5 µM [falling, single point] | 
30 | COc1cccc(/C(O)=C/c2nc3ccc(C(=O)NCCc4cccc(C)c4)cc3[nH]c2=O)c1 | 20.6 µM [falling, single point] | 
31 | CCOc1ccccc1NC(=O)C(=O)NCC1CCCN1CC (configuration not stated) | 3.55 µM [falling, partial curve, poor fit] | 
32 | C(=N\N1CCN(c2ccccn2)CC1)/c1cccc2ccccc12 | 8.91 µM [falling, partial curve, poor fit] | 
33 | COC(=O)C1=C(C)OC(N)=C(C#N)C1c1cc(C)sc1C (configuration not stated) | 7.31 µM [falling, partial curve, poor fit] | 
34 | C[C@H](CO)N1C[C@H](C)[C@@H](CN(C)C(=O)Nc2ccc3c(c2)OCO3)Oc2c(NC(=O)C3CC3)cccc2C1=O | 13 µM [rising, partial curve, poor fit] | 
35 | Cc1cccc(CSc2nc3ccccc3c(=O)n2C)c1 | 3.66 µM [rising, partial curve, poor fit] | 
36 | CCn1ncc(Cl)c1C(=O)NC(=S)Nc1ccccc1Br | 14.1 µM [falling, single point] | 28.2 µM [falling, single point]
37 | Cc1ccc(-c2n[nH]c(=S)n2/N=C/c2c(C)[nH]n(-c3ccccc3)c2=O)cc1 | 35.5 µM [falling, single point] | 
38 | Cc1nc(SCC(=O)N2CCNC2=O)c2ccccc2n1 | 25.9 µM [falling, single point] | 
39 | O=[N+]([O-])c1ccccc1NCc1ccccc1Cl |  | 10 µM [falling, partial curve, poor fit]
40 | N#Cc1c(N2C(=O)C3C4C=CC(C4)C3C2=O)sc2c1CCC2 (configuration not stated) | 6.51 µM [rising, single point] | 
41 | Cc1cccn2c(=O)c3cc(C#N)c(=NC(=O)c4cccs4)n(CCCOC(C)C)c3nc12 | 15.8 µM [falling, partial curve, poor fit] | 
42 | O=C(O)c1ccc(Oc2ccccc2)o1 | 8.91 µM [rising, partial curve, poor fit] | 

Row | SMILES | AC50 [1] | AC50 [2]
43 | O=C(COc1ccccc1)N1CCN(S(=O)(=O)c2cccs2)CC1 | 32.6 µM [falling, single point] | 
44 | COc1ccc(NC(=O)c2cccc(-c3ccc(O)cc3)c2)cn1 | 7.08 µM [falling, full curve] | 
45 | COc1ccc2nc(SCC(=O)N(C)C3CCCCC3)[nH]c2c1 | 20.6 µM [falling, partial curve] | 
46 | CN(C(=O)C1CCOC1)c1nnc(-c2ccccn2)s1 (configuration not stated) | 29.1 µM [rising, single point] | 
47 | CC(C)Cn1cc(C(=O)N2CCN(c3ccccn3)CC2)c2c3ccccc3n(C)c2c1=O | 11.2 µM [falling, partial curve, poor fit] | 
48 | Cc1ccc(Nc2nc(-c3ccc(O)c(O)c3)cs2)nc1 | 3.16 µM [falling, partial curve, poor fit] | 
49 | Cc1ccc(NC(=O)c2ccccc2NS(=O)(=O)c2ccc(F)cc2)cc1S(=O)(=O)N1CCCCC1 | 10.3 µM [falling, partial curve, poor fit] | 
50 | O=c1[nH]c(/C=C/c2cccnc2)c([N+](=O)[O-])c(=O)[nH]1 | 22.4 µM [falling, partial curve, poor fit] | 
51 | Cc1ccc(S(=O)(=O)N2CCN(CC(=O)NC3CCCc4ccccc43)CC2)cc1C (configuration not stated) | 16.4 µM [falling, single point] | 
52 | Oc1ccccc1-c1nc(NC2CCCC2)c2ccccc2n1 | 15.8 µM [falling, partial curve] | 11.2 µM [rising, partial curve, poor fit]
53 | O=C(CCNC(=O)c1ccccc1Cl)Nc1nc2ccccc2s1 | 6.31 µM [falling, partial curve, poor fit] | 12.6 µM [rising, partial curve, poor fit]
54 | Nc1c(C(=O)NC2CCCC2)c2nc3ccccc3nc2n1N | 3.98 µM [falling, partial curve, poor fit] | 
55 | COc1ccc(Cc2nnc(NC(=O)C3CC(=O)N(c4ccccc4C)C3)s2)cc1OC (configuration not stated) | 11.6 µM [falling, partial curve, poor fit] | 
56 | CC(=O)Oc1ccc(C(=O)Nc2ccc(C3(C#N)CCCC3)cc2)cc1 | 1.58 µM [falling, full curve] | 
57 | COCC(C)NC(=O)COc1ccc(Cl)cc1Cl (configuration not stated) | 3.26 µM [rising, partial curve, poor fit] | 
58 | CCN(c1cccc(C)c1)C(C(=O)Nc1ccc(OC)cc1)c1cc2c(cc1[N+](=O)[O-])OCO2 (configuration not stated) | 0.58 µM [rising, full curve, poor fit] | 
59 | O=C(c1ccc(Br)o1)N1N=C(c2ccc(Cl)cc2)CC1c1ccco1 (configuration not stated) | 3.98 µM [rising, full curve, poor fit] | 
60 | Cc1ccc(C)c(OCCCC(C)(C)C(=O)O)c1 |  | 20.6 µM [rising, partial curve, poor fit]
61 | CC12CCC(C/C1=N\N=C1\NC(=O)/C(=C\c3cccc(Br)c3)S1)C2(C)C (configuration not stated) | 0.58 µM [rising, full curve, poor fit] | 
